Measured values taken from PMC2831923.
Results are given in words; binding and its absence hold for the method and conditions named. Binding seen in cells or lysates may run through a third protein. A result given as binding can be weak or reduced; the word gives no strength.

Assays:
[1] = target: GST-labeled NCoR (nuclear receptor co-repressor 1); assay: pull-down; GST-labeled coregulators immobilized on sepharose beads; 35S-PPARα from reticulocyte lysate; with 1,000 μM MEHP; SDS-PAGE and phosphoimager quantification; only the target purified
[2] = target: GST-labeled NCoR (nuclear receptor co-repressor 1); assay: pull-down; GST-labeled coregulators immobilized on sepharose beads; 35S-PPARα from reticulocyte lysate; vehicle (no ligand); SDS-PAGE and phosphoimager quantification; only the target purified
[3] = target: GST-labeled p300 (E1A binding protein p300); assay: pull-down; GST-labeled coregulators immobilized on sepharose beads; 35S-PPARα from reticulocyte lysate; with 100 μM Wy14643; SDS-PAGE and phosphoimager quantification; only the target purified
[4] = target: GST-labeled p300 (E1A binding protein p300); assay: pull-down; GST-labeled coregulators immobilized on sepharose beads; 35S-PPARα from reticulocyte lysate; with 1,000 μM MEHP; SDS-PAGE and phosphoimager quantification; only the target purified

Measured: binding

B1: mouse PPARα (peroxisome proliferator-activated receptor α) (protein, UniProt P23204 1-468)
chain: MVDTESPICPLSPLEADDLESPLSEEFLQEMGNIQEISQSIGEESSGSFGFADYQYLGSCPGSEGSVITDTLSPASSPSSVSCPVIPASTDESPGSALNIECRICGDKASGYHYGVHACEGCKGFFRRTIRLKLVYDKCDRSCKIQKKNRNKCQYCRFHKCLSVGMSHNAIRFGRMPRSEKAKLKAEILTCEHDLKDSETADLKSLGKRIHEAYLKNFNMNKVKARVILAGKTSNNPPFVIHDMETLCMAEKTLVAKMVANGVEDKEAEVRFFHCCQCMSVETVTELTEFAKAIPGFANLDLNDQVTLLKYGVYEAIFTMLSSLMNKDGMLIAYGNGFITREFLKNLRKPFCDIMEPKFDFAMKFNALELDDSDISLFVAAIICCGDRPGLLNIGYIEKLQEGIVHVLKLHLQSNHPDDTFLFPKLLQKMVDLRQLVTEHAQLVQVIKKTESDAALHPLLQEIYRDMY
modifications: 35S-labeled
binds: [1] | [2] | [3]

B2: human PPARα (peroxisome proliferator-activated receptor α) (protein, UniProt Q07869 1-468)
chain: MVDTESPLCPLSPLEAGDLESPLSEEFLQEMGNIQEISQSIGEDSSGSFGFTEYQYLGSCPGSDGSVITDTLSPASSPSSVTYPVVPGSVDESPSGALNIECRICGDKASGYHYGVHACEGCKGFFRRTIRLKLVYDKCDRSCKIQKKNRNKCQYCRFHKCLSVGMSHNAIRFGRMPRSEKAKLKAEILTCEHDIEDSETADLKSLAKRIYEAYLKNFNMNKVKARVILSGKASNNPPFVIHDMETLCMAEKTLVAKLVANGIQNKEAEVRIFHCCQCTSVETVTELTEFAKAIPGFANLDLNDQVTLLKYGVYEAIFAMLSSVMNKDGMLVAYGNGFITREFLKSLRKPFCDIMEPKFDFAMKFNALELDDSDISLFVAAIICCGDRPGLLNVGHIEKMQEGIVHVLRLHLQSNHPDDIFLFPKLLQKMADLRQLVTEHAQLVQIIKKTESDAALHPLLQEIYRDMY
modifications: 35S-labeled
binds: all assays above
